In US20110217202A1, “ACTIVE OXYGEN DISINFECTION SYSTEM AND USE THEREOF” (priority 2010, published 2011):

Legend:
[1] = Uptake of photosensitizers by contact lenses (Example 3); conditions: 10 μg/mL photosensitizer, lenses submerged overnight; for UV/Vis (uptake by lens): UV spectrometry against blank lens
[2] = as above; conditions: 10 μg/mL photosensitizer, lenses submerged overnight; for UV/Vis (uptake by lens): UV spectrometry against blank lens; remark: listed apart in the source

SMILES	Visual (color change of the lens) [1]	UV/Vis (uptake by lens) [1] [µg]	Visual (color change of the lens) [2]	UV/Vis (uptake by lens) [2] [µg]
Cc1cc2nc3ccc(N(C)C)cc3[s+]c2cc1N.[Cl-] [TBO, Toluidine Blue O]	Slightly	2.84	Highly visible	8.45
C[n+]1ccc(-c2c3nc(c(-c4cc[n+](C)cc4)c4ccc([nH]4)c(-c4cc[n+](C)cc4)c4nc(c(-c5cc[n+](C)cc5)c5ccc2[nH]5)C=C4)C=C3)cc1.Cc1ccc(S(=O)(=O)[O-])cc1.Cc1ccc(S(=O)(=O)[O-])cc1.Cc1ccc(S(=O)(=O)[O-])cc1.Cc1ccc(S(=O)(=O)[O-])cc1 [TMPyP, tetra(N-methyl-4-pyridyl)porphine tetratosylate]	invisible	0	Highly visible	5.1
